{"source": "paper PMC11472388", "about": "(ACS Medicinal Chemistry Letters, 2024)", "key": {"[1]": {"test_system": "male and female DBA mice", "test": "animal or person", "assay_type": "in vivo", "description": "(§1) calculated and used as the peak response for determining ED50’s. Initial tests, based on previous studies with ZH853, were 3h in duration.\n(§2) Additional subgroups (n = 4-5) were therefore tested for 5h. […] For the time course (Figure 3) […]\n(§3) animals were used. Duration of antinociception was assessed using both the area under the curve (AUC) and duration of antinociception, calculated as the time from the first to the last time point greater than or equal to 50% MPE.\n(§4) Hot Plate (HP) Test: This test reflects a supraspinally organized complex response, 6 and was used to assess the CNS activation of antinociception by peripherally (s.c.) administered […]\n(§5) to reduce test compound requirements. The HP apparatus (IITC, Woodland Hills, CA) was set to 55.5°C, a temperature that elicited a response after 7-9 sec. Three baseline HP latencies to rapidly lift, lick, or shake the hind paws were taken prior to drug injection. Mice were removed from the HP after a maximum of 30 sec. Mice were injected with several analogs (0–5.6 mg/kg s.c.) and tested from 30–300 min after injection.\n(%MPE) as described for TF. […]\neach of those respective times was therefore calculated and used as the peak response for determining ED50’s. These values were used to calculate area under the curve (AUC). The duration of antinociception greater than 50% MPE was calculated as with TF.\nFigure S3. Microdialysis and Pharmacokinetics Experiment Scheme.\nScheme depicts catheterization and microdialysis of the rat striatum. […]\nendomorphin-1 analog (10 mg/kg; i.v.) ZH853 = ZH853•HCl (10 mg/kg; i.v.); aCSF = artificial cerebrospinal fluid. Created with BioRender.com (Agreement number MH26RXD2YP).\n(1 picture or pasted object on this page, not shown here)"}, "[2]": {"test_system": "male and female CD-1 mice", "test": "Tail flick (TF) antinociception", "assay_type": "in vivo", "settings": "for ED50: Mus musculus, sc", "from_the_text": "using the microdialysis probe recovery rate. All data are presented as mean ± SEM.\nFor the dialysate, the mean\nAnimals: Male and female CD-1 and DBA mice, 21–29 g at testing, were obtained from Charles River (Wilmington, MA) and housed in a 12-h light/dark cycle. All experiments were approved by the Tulane Institutional Animal Care and Use Committee and conducted according to the NIH Guide for the Care and Use of Laboratory Animals. All efforts were made to minimize animal suffering and to reduce the number of animals used.\nTail Flick (TF): CD1 mice were used for this test. The latency to withdraw the tail from a heat source was automatically measured (IITC, Woodland Hills, CA). […]\nwith a cutoff time of 9 s to prevent tissue damage. Percent Maximum Possible Effect (%MPE) was determined as [(latency-baseline latency)/(9-baseline latency)]*100. […]\nas §1, §2, §3, §4, §5\n(%MPE) as described for TF."}}, "note": "“And” between values parts separate entries of the source, which are not always exact repeats. Identical values can stand only once. Like-named read-outs stand apart in the source and are kept apart here.", "data": [{"smiles": "CN1CC[C@]23c4c5ccc(O)c4O[C@H]2[C@@H](O)C=C[C@H]3[C@H]1C5", "note": "[morphine]", "values": [{"measurement": "ED50", "setting": "[1]; Mus musculus, sc, mean of male and female, read-out: Hot plate ED50 Mean M&F", "value": "7.71 µmol/kg and 2.57 mg/kg"}, {"measurement": "Hot plate Potency vs control ZH853/analog", "setting": "[1]; ratio of ED50, mg/kg basis", "value": 0.85}, {"measurement": "Hot plate Potency vs control ZH853/analog", "setting": "[1]; ratio of ED50, μmol/kg basis", "value": 0.33}, {"measurement": "ED50", "setting": "[2]; male CD-1 mice, %MPE at peak response, read-out: Tail flick ED50 Male", "value": "1.25 ± 0.11", "unit": "mg/kg"}, {"measurement": "ED50", "setting": "[2]; mean of male and female, read-out: Tail flick ED50 Mean M&F", "value": "4.22 µmol/kg and 1.41 mg/kg"}, {"measurement": "Tail flick Potency vs control ZH853/analog", "setting": "[2]; ratio of ED50, mg/kg basis", "value": 1.43}, {"measurement": "Tail flick Potency vs control ZH853/analog", "setting": "[2]; ratio of ED50, μmol/kg basis", "value": 0.55}]}]}
